Reference: PubChem BioAssay AID1259425 (University of Nebraska Medical Center, 2018)

- Screen: 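Compare each knockdown with KSR1 silencing using changes in marker transcripts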 (primary screen)
- System: HCT116 human colon cancer cells
- Reagents: siRNA pool against human genes, 50 nM siRNA
- Measurement: 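After 50 nM siRNA pool, branched-DNA assay measures six marker transcripts per well, minus blank, normalised to the geometric mean of two housekeeping transcripts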
- Scale: BNIP3L mRNA: higher = more BNIP3L transcript after knockdown; NDRG1 mRNA: higher = more NDRG1 transcript after knockdown
In all, the deposit lists about 14,000 reagents; below is a random part of them. Further read-outs or replicates are left out here. Not stated in the record: the time to read-out.

NMRK1
- BNIP3L mRNA, set 1: 0.125
- NDRG1 mRNA, set 1: 0.264

ADGRF5
- BNIP3L mRNA, set 1: 0.0983
- NDRG1 mRNA, set 1: 0.11

BRCA2
- BNIP3L mRNA, set 1: 0.111
- NDRG1 mRNA, set 1: 0.0762

MELTF
- BNIP3L mRNA, set 1: 0.0335
- NDRG1 mRNA, set 1: 0.263

BCL11B
- BNIP3L mRNA, set 1: 0.0676
- NDRG1 mRNA, set 1: 0.205

NXPH2
- BNIP3L mRNA, set 1: 0.208
- NDRG1 mRNA, set 1: 0.654

ASB3
- BNIP3L mRNA, set 1: 0.137
- NDRG1 mRNA, set 1: 0.323

INPP5D
- BNIP3L mRNA, set 1: 0.197
- NDRG1 mRNA, set 1: 0.325

TRIM26
- BNIP3L mRNA, set 1: 0.0727
- NDRG1 mRNA, set 1: 0.14

MOCS1
- BNIP3L mRNA, set 1: 0.085
- NDRG1 mRNA, set 1: 0.228

NHLH1
- BNIP3L mRNA, set 1: 0.0913
- NDRG1 mRNA, set 1: 0.0964

NOD2
- BNIP3L mRNA, set 1: 0.108
- NDRG1 mRNA, set 1: 0.143

DGLUCY
- BNIP3L mRNA, set 1: 0.0923
- NDRG1 mRNA, set 1: 0.201

FSTL4
- BNIP3L mRNA, set 1: 0.208
- NDRG1 mRNA, set 1: 0.362

CLIC4
- BNIP3L mRNA, set 1: 0.0543
- NDRG1 mRNA, set 1: 0.53

MTR
- BNIP3L mRNA, set 1: 0.12
- NDRG1 mRNA, set 1: 0.338

OPN1SW
- BNIP3L mRNA, set 1: 0.259
- NDRG1 mRNA, set 1: 0.988

SYT7
- BNIP3L mRNA, set 1: 0.136
- NDRG1 mRNA, set 1: 0.227

USH2A
- BNIP3L mRNA, set 1: 0.165
- NDRG1 mRNA, set 1: 0.136

PCLAF
- BNIP3L mRNA, set 1: 0.0836
- NDRG1 mRNA, set 1: 0.116

KATNB1
- BNIP3L mRNA, set 1: 0.0974
- NDRG1 mRNA, set 1: 0.301

FHIP2A
- BNIP3L mRNA, set 1: 0.098
- NDRG1 mRNA, set 1: 0.107

GATA2
- BNIP3L mRNA, set 1: 0.111
- NDRG1 mRNA, set 1: 0.18

ADD2
- BNIP3L mRNA, set 1: 0.101
- NDRG1 mRNA, set 1: 0.0435

RPS6
- BNIP3L mRNA, set 1: 0.193
- NDRG1 mRNA, set 1: 0.33

ZNF333
- BNIP3L mRNA, set 1: 0.102
- NDRG1 mRNA, set 1: 0.169

CLUHP3
- BNIP3L mRNA, set 1: 0.141
- NDRG1 mRNA, set 1: 0.324

RAD17
- BNIP3L mRNA, set 1: 0.0613
- NDRG1 mRNA, set 1: 0.097

5 entries already listed, arranged by “NDRG1 mRNA, set 1”, high to low.
RPS6
- BNIP3L mRNA, set 1: 0.193
- NDRG1 mRNA, set 1: 0.33

GATA2
- BNIP3L mRNA, set 1: 0.111
- NDRG1 mRNA, set 1: 0.18

ZNF333
- BNIP3L mRNA, set 1: 0.102
- NDRG1 mRNA, set 1: 0.169

FHIP2A
- BNIP3L mRNA, set 1: 0.098
- NDRG1 mRNA, set 1: 0.107

ADD2
- BNIP3L mRNA, set 1: 0.101
- NDRG1 mRNA, set 1: 0.0435
